# In the supplement of paper PMC8728848:
# This is one part of the list.
# B1: SynCAM (Mus musculus) (protein)
# chain: MASAVLPSGSQCAAAAAVAAAAAPPGLRLRLLLLLLSAAALIPTGDGQNLFTKDVTVIEGEVATISCQVNKSDDSVIQLLNPNRQTIYFRDFRPLKDSRFQLLNFSSSELKVSLTNVSISDEGRYFCQLYTDPPQESYTTITVLVPPRNLMIDIQKDTAVEGEEIEVNCTAMASKPATTIRWFKGNKELKGKSEVEEWSDMYTVTSQLMLKVHKEDDGVPVICQVEHPAVTGNLQTQRYLEVQYKPQVHIQMTYPLQGLTREGDAFELTCEAIGKPQPVMVTWVRVDDEMPQHAVLSGPNLFINNLNKTDNGTYRCEASNIVGKAHSDYMLYVYDPPTTIPPP
# Columns and labels:
# Experiment in all cases: glycan array binding signal (z-score within array); higher = stronger binding
# Conditions in all cases: glycan notation: IUPAC condensed, linker removed
# [1] = target: Fuc(a1-2)Gal(b1-4)GlcNAc(b1-3)Gal(b1-4)GlcNAc(b1-3)Gal(b1-4)GlcNAc
# In short: (§1)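 From the Consortium for Functional Glycomics database, 3228 arrays were curated, keeping only those whose protein sequence was available. Binding is given as a within-array Z-score averaged across arrays sharing a protein sequence and across linkers. Negative Z-scores can be read as non-binding.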
# [2] = target: Fuc(a1-2)Gal(b1-4)GlcNAc(b1-3)GalNAc
# In short: as §1
# [3] = target: Fuc(a1-2)Gal(b1-4)GlcNAc(b1-3)[Fuc(a1-2)Gal(b1-4)GlcNAc(b1-6)]GalNAc
# In short: as §1
# [4] = target: Fuc(a1-2)Gal(b1-4)GlcNAc(b1-3)[Fuc(a1-3)[Gal(b1-4)]GlcNAc(b1-6)]Gal(b1-4)Glc
# In short: as §1
# [5] = target: Fuc(a1-2)Gal(b1-4)GlcNAc(b1-6)GalNAc
# In short: as §1
# [6] = target: Fuc(a1-2)Gal(b1-4)GlcNAc6S
# In short: as §1
# [7] = target: Fuc(a1-2)Gal(b1-4)[Fuc(a1-3)]GlcNAc
# In short: as §1
# [8] = target: Fuc(a1-2)Gal(b1-4)[Fuc(a1-3)]GlcNAc(b1-2)Man(a1-3)[Fuc(a1-2)Gal(b1-4)[Fuc(a1-3)]GlcNAc(b1-2)Man(a1-6)]Man(b1-4)GlcNAc(b1-4)[Fuc(a1-6)]GlcNAc
# In short: as §1
# [9] = target: Fuc(a1-2)Gal(b1-4)[Fuc(a1-3)]GlcNAc(b1-2)[Fuc(a1-2)Gal(b1-4)[Fuc(a1-3)]GlcNAc(b1-4)]Man(a1-3)[Fuc(a1-2)Gal(b1-4)[Fuc(a1-3)]GlcNAc(b1-2)Man(a1-6)]Man(b1-4)GlcNAc(b1-4)GlcNAc
# In short: as §1
# [10] = target: Fuc(a1-2)Gal(b1-4)[Fuc(a1-3)]GlcNAc(b1-3)Gal(b1-4)[Fuc(a1-3)]GlcNAc
# In short: as §1
# [11] = target: Fuc(a1-2)Gal(b1-4)[Fuc(a1-3)]GlcNAc(b1-3)Gal(b1-4)[Fuc(a1-3)]GlcNAc(b1-3)Gal(b1-4)[Fuc(a1-3)]GlcNAc
# In short: as §1
# [12] = target: Fuc(a1-2)Gal(b1-4)[Fuc(a1-3)]GlcNAc(b1-3)GalNAc
# In short: as §1
# [13] = target: Fuc(a1-2)Gal(b1-4)[Fuc(a1-3)]GlcNAc(b1-3)[Neu5Ac(a2-6)Gal(b1-4)GlcNAc(b1-6)]Gal(b1-4)Glc
# In short: as §1
# [14] = target: Fuc(a1-2)Gal3S(b1-4)GlcNAc
# In short: as §1
# [15] = target: Fuc(a1-2)Gal6S(b1-3)GlcNAc
# In short: as §1
# [16] = target: Fuc(a1-2)Gal6S(b1-3)GlcNAc6S
# In short: as §1
# Fuc(a1-2)Gal6S(b1-4)Glc = target: Fuc(a1-2)Gal6S(b1-4)Glc
# In short: as §1
# [17] = target: Fuc(a1-2)Gal6S(b1-4)Glc6S
# In short: as §1
# Fuc(a1-2)[Gal(a1-3)]Gal = target: Fuc(a1-2)[Gal(a1-3)]Gal
# In short: as §1
# [18] = target: Fuc(a1-2)[Gal(a1-3)]Gal(b1-3)GalNAc
# In short: as §1
# [19] = target: Fuc(a1-2)[Gal(a1-3)]Gal(b1-3)GalNAc(b1-3)Gal(a1-4)Gal(b1-4)Glc
# In short: as §1
# [20] = target: Fuc(a1-2)[Gal(a1-3)]Gal(b1-3)GlcNAc
# In short: as §1
# [21] = target: Fuc(a1-2)[Gal(a1-3)]Gal(b1-3)GlcNAc(b1-2)Man(a1-3)[Fuc(a1-2)[Gal(a1-3)]Gal(b1-3)GlcNAc(b1-2)Man(a1-6)]Man(b1-4)GlcNAc(b1-4)GlcNAc
# In short: as §1
# [22] = target: Fuc(a1-2)[Gal(a1-3)]Gal(b1-3)GlcNAc(b1-2)Man(a1-3)[Fuc(a1-2)[Gal(a1-3)]Gal(b1-3)GlcNAc(b1-2)Man(a1-6)]Man(b1-4)GlcNAc(b1-4)[Fuc(a1-6)]GlcNAc
# In short: as §1
# [23] = target: Fuc(a1-2)[Gal(a1-3)]Gal(b1-3)GlcNAc(b1-3)GalNAc
# In short: as §1
# [24] = target: Fuc(a1-2)[Gal(a1-3)]Gal(b1-3)GlcNAc(b1-6)GalNAc
# In short: as §1
# [25] = target: Fuc(a1-2)[Gal(a1-3)]Gal(b1-4)Glc
# In short: as §1
# [26] = target: Fuc(a1-2)[Gal(a1-3)]Gal(b1-4)GlcNAc
# In short: as §1
# [27] = target: Fuc(a1-2)[Gal(a1-3)]Gal(b1-4)GlcNAc(b1-2)Man
# In short: as §1
# [28] = target: Fuc(a1-2)[Gal(a1-3)]Gal(b1-4)GlcNAc(b1-2)Man(a1-3)[Fuc(a1-2)[Gal(a1-3)]Gal(b1-4)GlcNAc(b1-2)Man(a1-6)]Man(b1-4)GlcNAc(b1-4)GlcNAc
# In short: as §1
binder,measurement,setting,value
B1,glycan array binding signal (z-score),[1],-0.382
same,glycan array binding signal (z-score),[2],0.291
same,glycan array binding signal (z-score),[3],-0.917
same,glycan array binding signal (z-score),[4],-0.893
same,glycan array binding signal (z-score),[5],-0.076
same,glycan array binding signal (z-score),[6],-0.055
same,glycan array binding signal (z-score),[7],0.57
same,glycan array binding signal (z-score),[8],0.425
same,glycan array binding signal (z-score),[9],0.808
same,glycan array binding signal (z-score),[10],-0.507
same,glycan array binding signal (z-score),[11],0.498
same,glycan array binding signal (z-score),[12],0.446
same,glycan array binding signal (z-score),[13],-1.52
same,glycan array binding signal (z-score),[14],-1.04
same,glycan array binding signal (z-score),[15],0.405
same,glycan array binding signal (z-score),[16],0.177
same,glycan array binding signal (z-score),Fuc(a1-2)Gal6S(b1-4)Glc,-0.473
same,glycan array binding signal (z-score),[17],-0.488
same,glycan array binding signal (z-score),Fuc(a1-2)[Gal(a1-3)]Gal,0.589
same,glycan array binding signal (z-score),[18],0.091
same,glycan array binding signal (z-score),[19],-0.669
same,glycan array binding signal (z-score),[20],0.096
same,glycan array binding signal (z-score),[21],-0.264
same,glycan array binding signal (z-score),[22],-0.761
same,glycan array binding signal (z-score),[23],0.031
same,glycan array binding signal (z-score),[24],-1.4
same,glycan array binding signal (z-score),[25],-0.671
same,glycan array binding signal (z-score),[26],-1.34
same,glycan array binding signal (z-score),[27],0.739
same,glycan array binding signal (z-score),[28],0.729

# A portion from the list above, for reference:
binder,measurement,setting,value
B1,glycan array binding signal (z-score),[11],0.498
same,glycan array binding signal (z-score),[12],0.446
